Data set [1] concerns LpCSP2 (Lingulodinium polyedrum). In words: EMSA. The conditions noted are these: 10 mM Mg2+, 1x binding buffer: 10 mM Tris-Cl pH 7.0, 25 mM KCl, 0.5 mM DTT, 10 mM MgCl2, 5% glycerol, 30 min at room temperature, 1 ng probe, 5% native PAGE in 0.5x TBE, recombinant protein, protein details: GST removed by thrombin (pGEX-4T2), label: 5'-32P. On the technique in general: A gel shift assay detects complexes by their altered migration in electrophoresis.

Data set [2] concerns LpCSP1 (Lingulodinium polyedrum). In words: EMSA. The conditions noted are these: 10 mM Mg2+, 1x binding buffer: 10 mM Tris-Cl pH 7.0, 25 mM KCl, 0.5 mM DTT, 10 mM MgCl2, 5% glycerol, 30 min at room temperature, 1 ng probe, 5% native PAGE in 0.5x TBE, recombinant protein, protein details: GST removed by thrombin (pGEX-4T2), label: 5'-32P.
For data set [3] the test system is unchanged. The experiment in a line: competition with a labelled probe. The settings on record: 1x binding buffer: 10 mM Tris-Cl pH 7.0, 25 mM KCl, 0.5 mM DTT, 10 mM MgCl2, 5% glycerol, 30 min at room temperature, 1 ng probe, 5% native PAGE in 0.5x TBE, recombinant protein, protein details: GST removed by thrombin (pGEX-4T2), label: 5'-32P.

For at least one entry, the source does not settle the construct or the ends of the probe. The comparison behind a weaker result is the experiment's own reference, which may not be listed here.

For “GGTGAGGCTGATTGGCTGGGCAGGA (double strand) [Y-box dsDNA 25-mer probe]”, the binding result in data set [1] (300 and 1000 ng protein) is given as “binds more weakly”; in data set [2] (300 and 1000 ng protein) it was “binds more weakly”; in data set [3] (unlabeled dsDNA 1x-100x against labeled ssDNA N1, 600 ng protein), “binds more weakly”.
Consider “TCGATCGGGGCGGGGCGATCGGGGCGGGGCGA [ssDNA 32-mer probe]”, for which the binding result in data set [1] (100-1000 ng protein, single-stranded DNA) is “binds”; in data set [2] (100-1000 ng protein, 5 mM KCl-free data not given, single-stranded DNA), “binds”; in data set [3] (unlabeled ssDNA 1x-100x against labeled dsDNA N2, 600 ng protein, single-stranded DNA) it was “binds”.

Source of the values: PMC4863620.
